# Experimental data: publication PMC11975286, “Functional dissection of the conserved C. elegans LEM-3/ANKLE1 nuclease reveals a crucial requirement for the LEM-like and GIY-YIG domains for DNA bridge processing”
# Weaker means in comparison with the reference protein, sequence or condition of that experiment. Protein sequences can lack the tags named with them.
# Biological target: T1, LEM-3(241-704) K441A-R456A (Caenorhabditis elegans) (UniProt G5EGA3)
# T1 sequence (looked up): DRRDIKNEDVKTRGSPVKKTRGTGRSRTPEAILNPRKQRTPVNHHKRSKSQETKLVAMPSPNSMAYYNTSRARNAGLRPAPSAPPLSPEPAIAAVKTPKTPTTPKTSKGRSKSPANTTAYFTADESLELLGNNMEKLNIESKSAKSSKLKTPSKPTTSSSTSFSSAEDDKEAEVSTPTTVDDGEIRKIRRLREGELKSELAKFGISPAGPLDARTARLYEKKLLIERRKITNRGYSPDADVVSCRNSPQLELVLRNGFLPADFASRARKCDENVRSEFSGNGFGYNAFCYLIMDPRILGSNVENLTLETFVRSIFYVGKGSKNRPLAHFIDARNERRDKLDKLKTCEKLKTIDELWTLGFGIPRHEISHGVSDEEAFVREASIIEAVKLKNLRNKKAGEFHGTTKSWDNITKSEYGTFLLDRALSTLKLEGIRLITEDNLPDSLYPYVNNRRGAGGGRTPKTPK
# Assay: EMSA
# Settings: no divalent metal, 100 mM Na+, residual binding, 10 mM Tris-HCl pH 7.5, 100 mM NaCl, 5% glycerol, 5 ng/ul poly(dI-dC), 4 C, 1 h, 8.3 nM HJ-X0-1 (0.13 nM for Kd), 6% native PAGE, 0.5x TBE, recombinant protein, residues 241-704, protein details: His-GST removed by TEV, label: 5'-Cy5 on X0-1, folded or branched DNA
sequence,measurement,value
ACGCTGCCGAATTCTACCAGTGCCTTGCTAGGACATCTTTGCCCACCTGCAGGTTCACCC / GGGTGAACCTGCAGGTGGGCAAAGATGTCCATCTGTTGTAATCGTCAAGCTTTATGCCGT / ACGGCATAAAGCTTGACGATTACAACAGATCATGGAGCTGTCTAGAGGATCCGACTATCG / CGATAGTCGGATCCTCTAGACAGCTCCATGTAGCAAGGCACTGGTAGAATTCGGCAGCGT [HJ-X0-1 (immobile Holliday junction)],binding result,binds more weakly
